These are yes or no findings as the source states them, for the method shown. Binding seen in cells or lysates may run through a third protein. For some assays here: A result given as binding can be weak or reduced; the word gives no strength. Tags and fused reporters may be left off the sequences shown.
How the values were obtained:
[1] = biological target: T1, APEX2-EGFP fusion protein of ZO-3 (UniProt O95049); assay: co-IP
T1 sequence: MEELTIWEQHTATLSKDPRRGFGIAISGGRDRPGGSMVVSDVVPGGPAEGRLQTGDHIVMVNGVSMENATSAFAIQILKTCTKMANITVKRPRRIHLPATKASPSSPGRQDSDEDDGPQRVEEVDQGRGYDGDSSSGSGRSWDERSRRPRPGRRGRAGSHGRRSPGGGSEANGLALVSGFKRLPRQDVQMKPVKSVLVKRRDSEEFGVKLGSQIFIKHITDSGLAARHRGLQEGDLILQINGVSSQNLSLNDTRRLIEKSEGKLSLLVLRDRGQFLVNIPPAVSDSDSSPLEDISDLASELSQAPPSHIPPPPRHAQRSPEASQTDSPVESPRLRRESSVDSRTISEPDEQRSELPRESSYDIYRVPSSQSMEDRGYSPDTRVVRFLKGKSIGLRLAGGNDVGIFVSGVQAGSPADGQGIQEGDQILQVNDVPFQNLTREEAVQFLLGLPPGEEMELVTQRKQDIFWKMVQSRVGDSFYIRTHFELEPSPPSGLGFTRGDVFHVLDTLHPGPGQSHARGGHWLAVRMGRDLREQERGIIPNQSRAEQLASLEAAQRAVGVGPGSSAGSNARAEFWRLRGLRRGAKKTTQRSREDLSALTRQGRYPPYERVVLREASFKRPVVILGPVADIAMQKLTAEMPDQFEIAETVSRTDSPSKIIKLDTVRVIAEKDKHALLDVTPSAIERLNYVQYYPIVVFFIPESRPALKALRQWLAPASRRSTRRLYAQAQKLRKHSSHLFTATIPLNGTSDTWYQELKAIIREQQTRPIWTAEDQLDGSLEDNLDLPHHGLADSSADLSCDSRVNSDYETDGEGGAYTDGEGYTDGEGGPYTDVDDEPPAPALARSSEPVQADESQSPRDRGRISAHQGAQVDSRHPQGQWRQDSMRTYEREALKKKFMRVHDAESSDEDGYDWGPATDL

GFP-ARHGAP12a = biological target: T2, GFP-ARHGAP12a (UniProt Q8IWW6); assay: co-IP
T2 sequence: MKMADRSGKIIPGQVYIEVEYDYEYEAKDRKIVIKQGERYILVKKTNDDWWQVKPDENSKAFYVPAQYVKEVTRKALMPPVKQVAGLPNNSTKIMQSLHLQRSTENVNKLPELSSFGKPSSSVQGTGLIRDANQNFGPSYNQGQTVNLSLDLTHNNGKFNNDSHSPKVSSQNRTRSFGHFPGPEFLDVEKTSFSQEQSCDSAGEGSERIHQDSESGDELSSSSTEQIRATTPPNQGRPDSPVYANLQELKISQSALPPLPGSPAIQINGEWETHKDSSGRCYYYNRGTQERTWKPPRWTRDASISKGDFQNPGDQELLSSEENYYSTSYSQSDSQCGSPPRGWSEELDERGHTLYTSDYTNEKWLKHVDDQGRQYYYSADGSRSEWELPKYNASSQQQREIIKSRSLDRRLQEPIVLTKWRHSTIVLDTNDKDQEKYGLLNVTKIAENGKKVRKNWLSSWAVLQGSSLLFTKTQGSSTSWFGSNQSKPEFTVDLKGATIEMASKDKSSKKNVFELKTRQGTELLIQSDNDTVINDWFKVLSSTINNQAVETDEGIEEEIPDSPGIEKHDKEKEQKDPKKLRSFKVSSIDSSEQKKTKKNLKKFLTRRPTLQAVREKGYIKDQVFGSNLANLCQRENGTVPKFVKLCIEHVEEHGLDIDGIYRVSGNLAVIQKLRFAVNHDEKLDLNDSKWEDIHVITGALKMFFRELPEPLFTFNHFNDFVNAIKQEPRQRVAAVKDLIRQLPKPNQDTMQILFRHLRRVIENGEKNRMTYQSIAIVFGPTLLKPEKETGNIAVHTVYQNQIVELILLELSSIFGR

GST-SH3 = biological target: T3, GST-SH3 (UniProt Q8IWW6); assay: pull-down
T3 sequence: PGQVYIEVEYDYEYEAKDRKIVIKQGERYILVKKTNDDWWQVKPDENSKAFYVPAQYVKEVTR

Substance	binding [1]	binding (GFP-ARHGAP12a)	binding (GST-SH3)
ARHGAP12 (endogenous, MDCK-II)	no binding	–	–
IRSp53 (endogenous, MDCK-II)	–	no binding	–
N-WASP (endogenous, MDCK-II)	–	binds	binds
Par3 (endogenous, MDCK-II)	–	no binding	–
TIAM1 (endogenous, MDCK-II)	–	no binding	–
TOCA-1 (endogenous, MDCK-II)	–	no binding	–
TRIP10/CIP4 (endogenous, MDCK-II)	–	no binding	–

Source: publication doi:10.1101/2024.08.24.609485
